The list shows a part of the results.
Compound: CC1Cc2ccccc2N1C(=O)C1CCCN(C1)C(=O)CCl (mixture of isomers) [TRIM25 ligand 11 (diastereomer mixture)]
Assay: probe-labelled cysteine peptide fold change vs DMSO (competition) (log2 fold change); higher = less target engagement (more negative = stronger competition)
Conditions: 10 µM; THP-1; incubation time: 4 h
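Further: competitive chemoproteomic profiling in live THP-1 cells with an iodoacetamide desthiobiotin (IA-DTB) probe, comparing probe-labelled peptide intensities in compound-treated cells against DMSO-treated controls.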

The chains behind the UniProt entries cited, without tags or fusion partners. Where a name states a change or a piece, a line headed by the entry shows the natural chain unless it says otherwise.
UniProt Q8IWB7: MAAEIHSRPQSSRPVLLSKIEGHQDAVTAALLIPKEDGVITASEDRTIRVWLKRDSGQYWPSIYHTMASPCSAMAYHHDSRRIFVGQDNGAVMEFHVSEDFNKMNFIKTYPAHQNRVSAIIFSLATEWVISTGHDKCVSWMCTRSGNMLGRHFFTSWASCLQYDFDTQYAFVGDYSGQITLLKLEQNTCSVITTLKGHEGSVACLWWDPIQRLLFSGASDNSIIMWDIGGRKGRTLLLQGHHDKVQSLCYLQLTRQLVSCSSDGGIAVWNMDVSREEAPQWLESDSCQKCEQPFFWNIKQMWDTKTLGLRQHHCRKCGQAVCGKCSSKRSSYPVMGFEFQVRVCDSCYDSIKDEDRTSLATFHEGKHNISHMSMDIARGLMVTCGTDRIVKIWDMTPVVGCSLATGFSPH
UniProt Q9HAD4: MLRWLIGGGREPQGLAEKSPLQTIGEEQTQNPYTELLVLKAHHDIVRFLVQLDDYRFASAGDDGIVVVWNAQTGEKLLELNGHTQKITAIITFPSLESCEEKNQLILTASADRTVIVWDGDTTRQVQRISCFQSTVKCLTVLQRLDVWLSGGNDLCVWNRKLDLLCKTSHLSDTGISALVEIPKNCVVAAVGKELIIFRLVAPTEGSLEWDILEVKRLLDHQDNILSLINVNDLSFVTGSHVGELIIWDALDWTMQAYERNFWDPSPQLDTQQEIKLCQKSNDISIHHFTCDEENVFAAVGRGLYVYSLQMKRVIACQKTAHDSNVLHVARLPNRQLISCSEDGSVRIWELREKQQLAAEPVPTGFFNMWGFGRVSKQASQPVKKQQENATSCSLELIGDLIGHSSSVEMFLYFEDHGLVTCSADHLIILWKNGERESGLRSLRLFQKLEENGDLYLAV
UniProt P98170, whole entry, looked up: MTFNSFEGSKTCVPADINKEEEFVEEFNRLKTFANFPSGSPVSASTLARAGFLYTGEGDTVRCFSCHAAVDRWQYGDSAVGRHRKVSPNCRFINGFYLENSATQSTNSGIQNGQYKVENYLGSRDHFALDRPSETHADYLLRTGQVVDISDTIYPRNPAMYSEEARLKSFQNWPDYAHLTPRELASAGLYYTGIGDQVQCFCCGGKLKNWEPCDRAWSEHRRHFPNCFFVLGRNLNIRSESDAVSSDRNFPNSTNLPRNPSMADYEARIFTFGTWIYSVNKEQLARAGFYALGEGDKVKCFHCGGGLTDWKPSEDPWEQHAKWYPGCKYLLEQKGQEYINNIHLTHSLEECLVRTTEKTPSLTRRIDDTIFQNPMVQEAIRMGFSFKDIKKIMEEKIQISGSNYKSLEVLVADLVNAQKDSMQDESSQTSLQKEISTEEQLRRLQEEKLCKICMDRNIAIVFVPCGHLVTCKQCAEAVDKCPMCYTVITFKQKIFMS
UniProt O75717: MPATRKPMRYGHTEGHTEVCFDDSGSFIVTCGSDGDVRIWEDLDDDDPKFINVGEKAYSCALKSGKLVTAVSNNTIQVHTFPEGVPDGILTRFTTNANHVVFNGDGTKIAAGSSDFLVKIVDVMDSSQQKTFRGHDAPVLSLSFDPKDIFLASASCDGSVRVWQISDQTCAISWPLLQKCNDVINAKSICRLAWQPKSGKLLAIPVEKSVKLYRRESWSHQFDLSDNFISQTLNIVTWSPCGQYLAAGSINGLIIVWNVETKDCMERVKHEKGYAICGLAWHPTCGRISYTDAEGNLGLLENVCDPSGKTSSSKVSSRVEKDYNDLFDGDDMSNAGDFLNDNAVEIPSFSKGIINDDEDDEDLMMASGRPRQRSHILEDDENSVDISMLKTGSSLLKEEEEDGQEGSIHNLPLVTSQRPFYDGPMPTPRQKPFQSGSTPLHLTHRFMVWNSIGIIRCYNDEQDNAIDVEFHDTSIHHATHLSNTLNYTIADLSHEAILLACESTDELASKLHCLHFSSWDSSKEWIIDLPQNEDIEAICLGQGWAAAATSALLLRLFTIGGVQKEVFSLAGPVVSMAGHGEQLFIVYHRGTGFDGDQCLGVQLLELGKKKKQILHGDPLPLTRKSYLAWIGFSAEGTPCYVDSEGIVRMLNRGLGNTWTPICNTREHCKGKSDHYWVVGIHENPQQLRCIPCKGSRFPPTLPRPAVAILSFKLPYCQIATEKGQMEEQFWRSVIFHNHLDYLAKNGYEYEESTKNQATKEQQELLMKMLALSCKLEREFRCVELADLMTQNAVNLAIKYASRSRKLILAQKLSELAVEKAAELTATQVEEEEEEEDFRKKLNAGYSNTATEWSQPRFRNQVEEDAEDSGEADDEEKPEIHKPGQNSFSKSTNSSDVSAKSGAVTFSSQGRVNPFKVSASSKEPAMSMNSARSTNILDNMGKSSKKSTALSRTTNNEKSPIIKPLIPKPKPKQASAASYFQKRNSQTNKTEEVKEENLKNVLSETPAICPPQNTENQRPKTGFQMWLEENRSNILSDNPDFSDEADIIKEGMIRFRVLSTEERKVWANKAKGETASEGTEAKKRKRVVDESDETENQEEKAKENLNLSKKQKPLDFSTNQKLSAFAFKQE
UniProt Q9H4A3: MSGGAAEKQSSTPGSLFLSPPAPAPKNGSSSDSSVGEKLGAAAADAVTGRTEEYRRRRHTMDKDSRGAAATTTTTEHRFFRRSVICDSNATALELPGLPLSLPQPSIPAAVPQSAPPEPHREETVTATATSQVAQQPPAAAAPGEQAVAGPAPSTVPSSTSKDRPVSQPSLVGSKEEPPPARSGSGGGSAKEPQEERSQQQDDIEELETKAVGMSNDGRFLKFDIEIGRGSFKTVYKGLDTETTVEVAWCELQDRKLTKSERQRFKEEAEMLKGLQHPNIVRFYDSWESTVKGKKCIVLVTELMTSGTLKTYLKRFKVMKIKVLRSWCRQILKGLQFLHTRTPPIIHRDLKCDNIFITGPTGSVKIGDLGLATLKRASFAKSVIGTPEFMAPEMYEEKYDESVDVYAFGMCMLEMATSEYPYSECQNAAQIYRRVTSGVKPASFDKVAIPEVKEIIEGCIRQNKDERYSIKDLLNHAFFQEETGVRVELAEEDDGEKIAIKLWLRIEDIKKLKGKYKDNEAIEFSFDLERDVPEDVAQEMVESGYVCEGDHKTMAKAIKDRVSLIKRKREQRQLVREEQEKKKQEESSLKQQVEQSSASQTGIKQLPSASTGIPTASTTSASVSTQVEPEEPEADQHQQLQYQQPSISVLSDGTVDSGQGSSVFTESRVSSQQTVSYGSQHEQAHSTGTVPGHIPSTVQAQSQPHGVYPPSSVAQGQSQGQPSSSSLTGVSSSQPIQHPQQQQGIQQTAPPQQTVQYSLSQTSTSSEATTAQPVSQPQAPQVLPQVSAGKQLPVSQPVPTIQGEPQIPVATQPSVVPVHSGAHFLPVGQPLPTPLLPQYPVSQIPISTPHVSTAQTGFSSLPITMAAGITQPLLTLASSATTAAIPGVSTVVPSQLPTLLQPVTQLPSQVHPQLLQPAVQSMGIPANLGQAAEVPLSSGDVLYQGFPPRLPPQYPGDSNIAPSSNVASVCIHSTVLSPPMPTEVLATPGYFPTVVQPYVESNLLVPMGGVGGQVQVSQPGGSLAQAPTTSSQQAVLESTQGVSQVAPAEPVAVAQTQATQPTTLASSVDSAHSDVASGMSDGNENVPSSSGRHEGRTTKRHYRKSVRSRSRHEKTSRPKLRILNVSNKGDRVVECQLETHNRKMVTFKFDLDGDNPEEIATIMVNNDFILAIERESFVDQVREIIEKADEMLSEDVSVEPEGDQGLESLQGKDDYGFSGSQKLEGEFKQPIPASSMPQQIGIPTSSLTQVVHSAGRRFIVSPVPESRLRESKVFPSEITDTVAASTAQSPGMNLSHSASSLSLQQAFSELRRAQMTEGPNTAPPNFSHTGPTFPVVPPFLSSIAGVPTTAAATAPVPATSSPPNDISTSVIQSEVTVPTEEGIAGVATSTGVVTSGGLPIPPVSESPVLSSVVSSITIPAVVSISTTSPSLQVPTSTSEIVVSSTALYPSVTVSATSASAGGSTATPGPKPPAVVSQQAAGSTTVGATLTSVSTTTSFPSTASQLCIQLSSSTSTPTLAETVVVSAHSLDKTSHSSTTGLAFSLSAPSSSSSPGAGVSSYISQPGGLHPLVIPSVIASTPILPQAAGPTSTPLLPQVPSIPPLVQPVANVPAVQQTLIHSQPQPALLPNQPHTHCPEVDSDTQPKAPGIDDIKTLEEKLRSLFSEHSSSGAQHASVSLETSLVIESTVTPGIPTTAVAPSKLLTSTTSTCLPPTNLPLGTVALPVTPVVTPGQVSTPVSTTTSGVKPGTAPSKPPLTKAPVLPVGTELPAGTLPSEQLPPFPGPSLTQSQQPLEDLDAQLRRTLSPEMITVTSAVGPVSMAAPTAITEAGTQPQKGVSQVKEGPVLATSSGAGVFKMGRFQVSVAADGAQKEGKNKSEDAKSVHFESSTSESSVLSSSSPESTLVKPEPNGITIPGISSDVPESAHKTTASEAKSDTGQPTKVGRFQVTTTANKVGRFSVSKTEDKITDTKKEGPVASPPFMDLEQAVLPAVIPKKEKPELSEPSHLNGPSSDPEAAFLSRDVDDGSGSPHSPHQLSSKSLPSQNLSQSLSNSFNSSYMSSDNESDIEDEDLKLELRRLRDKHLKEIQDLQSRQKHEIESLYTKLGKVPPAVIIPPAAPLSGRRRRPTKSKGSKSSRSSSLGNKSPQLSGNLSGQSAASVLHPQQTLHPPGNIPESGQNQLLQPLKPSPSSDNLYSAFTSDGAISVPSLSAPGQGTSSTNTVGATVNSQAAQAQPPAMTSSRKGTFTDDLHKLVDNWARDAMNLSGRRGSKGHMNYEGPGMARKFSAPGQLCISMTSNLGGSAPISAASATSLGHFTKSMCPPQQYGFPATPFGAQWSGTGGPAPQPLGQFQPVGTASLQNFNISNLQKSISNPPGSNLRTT
UniProt O75083: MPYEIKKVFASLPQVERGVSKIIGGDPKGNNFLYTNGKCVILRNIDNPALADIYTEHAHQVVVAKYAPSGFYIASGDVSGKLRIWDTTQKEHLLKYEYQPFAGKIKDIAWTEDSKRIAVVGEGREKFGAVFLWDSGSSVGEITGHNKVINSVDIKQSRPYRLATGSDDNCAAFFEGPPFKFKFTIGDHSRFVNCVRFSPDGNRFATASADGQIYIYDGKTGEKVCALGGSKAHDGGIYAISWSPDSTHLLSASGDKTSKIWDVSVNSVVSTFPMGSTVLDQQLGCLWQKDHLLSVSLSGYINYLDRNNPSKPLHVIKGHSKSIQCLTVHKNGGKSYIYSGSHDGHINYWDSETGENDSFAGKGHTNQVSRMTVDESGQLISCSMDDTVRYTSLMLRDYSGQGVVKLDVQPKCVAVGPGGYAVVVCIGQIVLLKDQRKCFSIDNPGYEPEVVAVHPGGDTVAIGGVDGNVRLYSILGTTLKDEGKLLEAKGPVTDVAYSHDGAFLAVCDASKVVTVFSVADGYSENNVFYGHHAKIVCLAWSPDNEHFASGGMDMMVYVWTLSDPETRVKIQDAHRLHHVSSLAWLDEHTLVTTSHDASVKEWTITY
UniProt Q96HA8: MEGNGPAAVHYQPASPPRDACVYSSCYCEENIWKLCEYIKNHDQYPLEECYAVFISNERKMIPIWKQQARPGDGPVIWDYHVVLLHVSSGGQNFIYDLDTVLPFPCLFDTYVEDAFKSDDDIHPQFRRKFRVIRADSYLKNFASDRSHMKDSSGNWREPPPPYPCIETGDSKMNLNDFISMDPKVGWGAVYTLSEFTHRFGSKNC
UniProt O75554: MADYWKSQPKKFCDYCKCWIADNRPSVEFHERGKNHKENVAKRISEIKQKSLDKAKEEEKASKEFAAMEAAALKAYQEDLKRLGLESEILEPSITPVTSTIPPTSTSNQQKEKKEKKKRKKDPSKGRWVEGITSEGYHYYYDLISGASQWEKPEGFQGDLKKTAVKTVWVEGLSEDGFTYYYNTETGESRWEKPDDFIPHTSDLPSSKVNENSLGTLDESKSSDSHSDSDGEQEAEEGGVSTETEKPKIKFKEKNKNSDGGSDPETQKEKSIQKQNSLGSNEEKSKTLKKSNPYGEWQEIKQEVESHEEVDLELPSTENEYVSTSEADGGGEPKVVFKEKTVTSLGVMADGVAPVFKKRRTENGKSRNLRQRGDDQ

Q: For “WDR25_Q64LD2_429_FTCPSLALHPR (UniProt Q64LD2)”, which “probe-labelled cysteine peptide fold change” value is on record?
A: The value was 0.000846.

Q: XPC_Q01831_514_MCSDGEK (UniProt Q01831) was tested. Which “probe-labelled cysteine peptide fold change” value did it give?
A: Its value is -0.0167.

Q: How did the “probe-labelled cysteine peptide fold change” value turn out when “WDR81_Q562E7_1715_SVFFVGQLEAPQHVVSCDGAVHVWDPFTGK (UniProt Q562E7)” was run?
A: The value was 0.0743.

Q: With “WDFY3_Q8IZQ1_2094_SQGLSLDAVYHCLNR (UniProt Q8IZQ1)” as the target, how does the “probe-labelled cysteine peptide fold change” value read?
A: The value was 0.0537.

Q: For “WDFY1_Q8IWB7_189_LEQNTCSVITTLK (UniProt Q8IWB7)”, which “probe-labelled cysteine peptide fold change” value is on record?
A: Its value is 0.462.

Q: For “WDR41_Q9HAD4_99_ITAIITFPSLESCEEK (UniProt Q9HAD4)”, which “probe-labelled cysteine peptide fold change” value is on record?
A: The value was 0.257.

Q: “WRN_Q14191_1070_ANTESQSLILQANEELCPK (UniProt Q14191)” was tested. Which “probe-labelled cysteine peptide fold change” value did it give?
A: Its value is 0.141.

Q: How did the “probe-labelled cysteine peptide fold change” value turn out when “XIAP_P98170_12_TCVPADINKEEEFVEEFNR (UniProt P98170)” was run?
A: Its value is -0.00651.

Q: “WDHD1_O75717_773_MLALSCK (UniProt O75717)” was tested. Which “probe-labelled cysteine peptide fold change” value did it give?
A: Its value is 0.00854.

Q: Which “probe-labelled cysteine peptide fold change” value does the source give for “WNK1_Q9H4A3_1135_VVECQLETHNRK (UniProt Q9H4A3)” here?
A: The value was 0.137.

Q: “WDFY4_Q6ZS81_582_IFLDDECYR (UniProt Q6ZS81)” was tested. Which “probe-labelled cysteine peptide fold change” value did it give?
A: Its value is 0.298.

Q: How did the “probe-labelled cysteine peptide fold change” value turn out when “WDR43_Q15061_291_LAVVCR (UniProt Q15061)” was run?
A: The value was -0.051.

Q: How did the “probe-labelled cysteine peptide fold change” value turn out when “WDR1_O75083_507_GPVTDVAYSHDGAFLAVCDASK (UniProt O75083)” was run?
A: Its value is 0.0917.

Q: For “WDYHV1_Q96HA8_165_DSSGNWREPPPPYPCIETGDSK (UniProt Q96HA8)”, which “probe-labelled cysteine peptide fold change” value is on record?
A: The value was -0.253.

Q: With “WDR11_Q9BZH6_107_IIVWDVAAGVAQCEIQEHAK (UniProt Q9BZH6)” as the target, how does the “probe-labelled cysteine peptide fold change” value read?
A: Its value is 0.176.

Q: Which “probe-labelled cysteine peptide fold change” value does the source give for WBP4_O75554_13_KFCDYCK (UniProt O75554) here?
A: Its value is -0.152.

From the supplement of paper PMC12067093, “Discovery and optimisation of a covalent ligand for TRIM25 and its application to targeted protein ubiquitination” (Chemical Science, 2025)
